Some of the results follow.
How the values were obtained:
Assay in all cases: log2 fold change, soluble protein after heating vs DMSO (PISA); higher = thermal stabilisation; K562 lysate, 10 uM; active = over 0.2 and 3.5 SD of the protein, either way, in both replicates (recomputed)
[1] = compound: CN1CC[C@H](c2c(O)cc(O)c3c(=O)cc(-c4ccccc4Cl)oc23)[C@H](O)C1 [alvocidib]
How it was run: (§1)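 K562 pellets were dounce-homogenised in PBS pH 7.4 with 1 mM MgCl2, and the crude extract at 1 mg/mL protein was treated with 10 μM compound for 30 min. Aliquots were heated for 3 min across 48°C-58°C, pooled, and brought to 0.5% NP-40 at 4°C; soluble protein was the supernatant after 21,000xg for 90 min. Soluble protein was quantified by TMTpro 16plex LC-MS/MS with channel sums equalised, and reported as log2 fold change in thermal stability against DMSO controls, with values from duplicates.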

Protein sequences, listed by entry. Tags and fused reporters are not part of them. Lines headed by an entry give the natural chain unless they say otherwise; changes in a name come on top.
UniProt Q86UE4: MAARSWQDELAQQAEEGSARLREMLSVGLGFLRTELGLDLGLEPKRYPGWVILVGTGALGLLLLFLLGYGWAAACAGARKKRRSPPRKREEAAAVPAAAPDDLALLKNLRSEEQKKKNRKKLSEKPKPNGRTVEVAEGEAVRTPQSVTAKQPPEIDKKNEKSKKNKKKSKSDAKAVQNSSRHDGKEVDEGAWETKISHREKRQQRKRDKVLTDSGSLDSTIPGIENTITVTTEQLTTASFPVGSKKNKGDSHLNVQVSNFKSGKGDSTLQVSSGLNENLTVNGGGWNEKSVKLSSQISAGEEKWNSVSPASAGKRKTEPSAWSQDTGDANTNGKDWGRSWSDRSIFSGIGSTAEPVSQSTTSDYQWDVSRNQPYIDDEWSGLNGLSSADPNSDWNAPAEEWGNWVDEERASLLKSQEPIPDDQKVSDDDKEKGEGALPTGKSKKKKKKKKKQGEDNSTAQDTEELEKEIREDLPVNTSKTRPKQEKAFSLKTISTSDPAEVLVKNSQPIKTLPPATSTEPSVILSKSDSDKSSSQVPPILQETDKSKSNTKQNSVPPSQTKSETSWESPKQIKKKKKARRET
UniProt P03905, whole entry, looked up: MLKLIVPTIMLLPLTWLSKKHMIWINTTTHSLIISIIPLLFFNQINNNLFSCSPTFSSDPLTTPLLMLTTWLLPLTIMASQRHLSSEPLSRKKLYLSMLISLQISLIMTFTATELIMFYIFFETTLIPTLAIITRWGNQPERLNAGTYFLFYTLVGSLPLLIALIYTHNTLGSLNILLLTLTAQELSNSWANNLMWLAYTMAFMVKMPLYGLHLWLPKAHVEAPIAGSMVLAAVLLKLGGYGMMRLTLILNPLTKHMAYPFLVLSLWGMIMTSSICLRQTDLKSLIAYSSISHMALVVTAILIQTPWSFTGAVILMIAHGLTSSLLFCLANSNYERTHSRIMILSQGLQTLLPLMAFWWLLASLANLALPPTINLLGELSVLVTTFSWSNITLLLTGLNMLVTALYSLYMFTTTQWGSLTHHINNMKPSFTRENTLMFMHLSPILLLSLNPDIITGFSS
UniProt P49914: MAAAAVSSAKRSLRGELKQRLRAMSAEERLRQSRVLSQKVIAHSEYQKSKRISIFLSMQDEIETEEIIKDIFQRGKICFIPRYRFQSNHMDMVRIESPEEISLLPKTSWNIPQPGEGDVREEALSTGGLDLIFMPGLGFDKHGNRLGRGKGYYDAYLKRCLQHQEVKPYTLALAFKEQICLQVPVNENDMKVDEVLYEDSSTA
UniProt P03891, whole entry, looked up: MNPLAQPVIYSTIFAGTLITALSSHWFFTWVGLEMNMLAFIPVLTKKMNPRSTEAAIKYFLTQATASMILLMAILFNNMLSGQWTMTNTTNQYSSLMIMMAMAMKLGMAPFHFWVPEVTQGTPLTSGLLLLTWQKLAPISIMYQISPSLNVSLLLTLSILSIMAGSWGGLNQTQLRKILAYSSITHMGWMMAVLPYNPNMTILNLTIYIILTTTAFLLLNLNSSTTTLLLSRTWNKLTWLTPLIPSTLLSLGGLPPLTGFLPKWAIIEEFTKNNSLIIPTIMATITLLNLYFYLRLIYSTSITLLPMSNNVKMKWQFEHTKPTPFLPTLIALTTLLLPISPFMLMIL
UniProt Q9Y217: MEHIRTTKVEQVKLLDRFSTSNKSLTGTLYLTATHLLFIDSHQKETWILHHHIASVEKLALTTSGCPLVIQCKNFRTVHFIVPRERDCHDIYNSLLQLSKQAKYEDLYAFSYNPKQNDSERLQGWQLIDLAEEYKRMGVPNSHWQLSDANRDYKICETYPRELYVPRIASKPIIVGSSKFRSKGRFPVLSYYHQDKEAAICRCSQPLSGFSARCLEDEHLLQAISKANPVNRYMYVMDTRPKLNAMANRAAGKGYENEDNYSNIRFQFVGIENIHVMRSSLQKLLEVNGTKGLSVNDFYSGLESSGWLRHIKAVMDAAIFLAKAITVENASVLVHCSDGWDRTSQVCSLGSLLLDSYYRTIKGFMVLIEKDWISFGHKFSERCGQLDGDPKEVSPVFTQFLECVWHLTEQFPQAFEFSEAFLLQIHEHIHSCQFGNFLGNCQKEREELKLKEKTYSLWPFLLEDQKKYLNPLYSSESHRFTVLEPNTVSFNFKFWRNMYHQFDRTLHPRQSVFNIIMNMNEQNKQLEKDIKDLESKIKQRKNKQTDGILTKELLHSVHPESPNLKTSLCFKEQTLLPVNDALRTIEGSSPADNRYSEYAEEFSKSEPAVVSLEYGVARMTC
UniProt P00156: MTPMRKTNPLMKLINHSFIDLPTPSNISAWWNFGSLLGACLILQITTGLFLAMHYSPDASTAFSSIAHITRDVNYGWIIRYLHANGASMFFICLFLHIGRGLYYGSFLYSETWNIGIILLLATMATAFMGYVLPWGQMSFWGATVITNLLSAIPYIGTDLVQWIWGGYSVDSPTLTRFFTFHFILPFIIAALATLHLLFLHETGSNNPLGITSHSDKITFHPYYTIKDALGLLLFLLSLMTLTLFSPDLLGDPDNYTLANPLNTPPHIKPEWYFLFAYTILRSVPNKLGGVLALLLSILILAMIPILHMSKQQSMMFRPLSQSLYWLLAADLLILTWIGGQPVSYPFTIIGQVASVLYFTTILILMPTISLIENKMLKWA

[2] = compound: CN1CCc2c(c3ccccc3n2Cc2ccc(C(=O)NO)cc2)C1 [Tubastatin A]
How it was run: as §1

[3] = compound: CNC(=O)C1=CC=CC=C1NC2=NC(=NC=C2Cl)NC3=C(C=C(C=C3)N4CCOCC4)OC
How it was run: as §1

[4] = compound: CNC(=O)c1ccc(Nc2ncc(C(F)(F)F)c(NCc3nccnc3N(C)S(C)(=O)=O)n2)cc1 [defactinib]
How it was run: as §1

[5] = compound: CNc1nc(-c2ccc3c(N)n[nH]c3c2)cc(N2C[C@@H](C(=O)NC3CCCCC3)CC[C@H]2C)n1
How it was run: as §1

[6] = compound: COC(=O)N[C@@H](C)CNc1nccc(-c2cn(C(C)C)nc2-c2cc(Cl)cc(NS(C)(=O)=O)c2F)n1 [encorafenib]
How it was run: as §1

[7] = compound: COC(=O)[C@H](CCSC)NC(=O)C1=C(C=C(C=C1)NC[C@H](CS)N)C2=CC=CC=C2
How it was run: as §1

[8] = compound: COc1cc(Nc2ncc3c(n2)-c2ccc(Cl)cc2C(c2c(F)cccc2OC)=NC3)ccc1C(=O)O [alisertib]
How it was run: as §1

[9] = compound: COc1cc2nc(-c3cc(F)ccc3O)nc(N[C@@H]3CNC[C@H]3C(C)(C)O)c2cc1OC
How it was run: as §1

[10] = compound: COc1cc2ncnc(Nc3ccc(F)c(Cl)c3)c2cc1OCCCN1CCOCC1 [gefitinib]
How it was run: as §1

[11] = compound: CS(=O)(=O)CCNCc1ccc(-c2ccc3ncnc(Nc4ccc(OCc5cccc(F)c5)c(Cl)c4)c3c2)o1 [lapatinib]
How it was run: as §1

[12] = compound: CS(=O)(=O)N1CCN(Cc2cc3nc(-c4cccc5[nH]ncc45)nc(N4CCOCC4)c3s2)CC1 [pictilisib]
How it was run: as §1

[13] = compound: C[C@@H](Oc1cc(-c2cnn(C3CCNCC3)c2)cnc1N)c1c(Cl)ccc(F)c1Cl [crizotinib]
How it was run: as §1

[14] = compound: C[C@H](C1=CC=C(C=C1)C(=O)NC2=C3C=CNC3=NC=C2)N
How it was run: as §1

[15] = compound: C[C@H](Nc1ncnc2nc[nH]c12)c1cc2cccc(Cl)c2c(=O)n1-c1ccccc1 [duvelisib]
How it was run: as §1

[16] = compound: Cc1cc(Nc2cc(CN3CCOCC3)c3nc(C)c(Cc4ccc(Cl)cc4F)n3n2)n[nH]1 [gandotinib]
How it was run: as §1

[17] = compound: Cc1cc(Nc2cc(N3CCN(C)CC3)nc(Sc3ccc(NC(=O)C4CC4)cc3)n2)n[nH]1 [tozasertib]
How it was run: as §1

[18] = compound: Cc1ccc(-n2nc(C(C)(C)C)cc2NC(=O)Nc2ccc(OCCN3CCOCC3)c3ccccc23)cc1 [doramapimod]
How it was run: as §1

[19] = compound: Cc1ccc(NC(=O)c2ccc(CN3CC[C@H](N(C)C)C3)c(C(F)(F)F)c2)cc1Nc1nccc(-c2cncnc2)n1 [bafetinib]
How it was run: as §1

[20] = compound: Cc1cccc(CC(=O)N2CCc3c2ccc(-c2cn(C)c4ncnc(N)c24)c3F)n1
How it was run: as §1

Measured: log2 fold change

MTDH (UniProt Q86UE4)
inactive: [1] -0.027 | [2] 0.052 | [3] -0.006 | [4] 0.015 | [5] 0.035 | [6] -0.015 | [7] 0.009 | [8] -0.013 | [9] 0.009 | [10] -0.019 | [11] -0.019 | [12] -0.01 | [13] 0.028 | [14] -0.016 | [15] 0.012 | [16] 0.034 | [17] -0.033 | [18] 0.002 | [19] -0.001 | [20] 0.008

MRPS27 isoform 2 (UniProt Q92552)
inactive: [1] -0.012 | [2] -0.047 | [3] 0.008 | [4] 0.032 | [5] 0.05 | [6] -0.018 | [7] 0.003 | [8] -0.022 | [9] 0.014 | [10] -0.067 | [11] -0.013 | [12] -0.036 | [13] -0.068 | [14] -0.102 | [15] 0.019 | [16] 0.121 | [17] 0.039 | [18] 0.016 | [19] -0.055 | [20] 0.197

MRPS6 (UniProt P82932)
inactive: [1] 0.003 | [2] -0.045 | [3] 0.017 | [4] -0.044 | [5] 0.059 | [6] 0.019 | [7] -0.206 | [8] 0.026 | [9] 0.038 | [10] 0.037 | [11] 0.003 | [12] -0.007 | [13] -0.052 | [14] -0.011 | [15] 0.088 | [16] 0.006 | [17] 0.063 | [18] 0.065 | [19] -0.049 | [20] -0.011

MT-ND4 (UniProt P03905)
inactive: [1] -0.154 | [2] 0.074 | [3] -0.014 | [4] 0.127 | [5] 0.013 | [6] 0.101 | [7] -0.065 | [8] -0.014 | [9] -0.035 | [10] 0.051 | [11] -0.026 | [12] -0.099 | [13] -0.125 | [14] -0.035 | [15] 0.04 | [16] -0.011 | [17] -0.038 | [18] 0.061 | [19] -0.125 | [20] 0.072

MTHFS (UniProt P49914)
inactive: [1] -0.013 | [2] -0.045 | [3] 0 | [4] 0 | [5] -0.019 | [6] -0.005 | [7] 0.111 | [8] -0.017 | [9] 0.006 | [10] -0.011 | [11] 0.051 | [12] 0.016 | [13] -0.006 | [14] -0.041 | [15] -0.025 | [16] -0.042 | [17] 0.06 | [18] 0.02 | [19] 0.049 | [20] 0.034

MRPL57 (UniProt Q9BQC6)
inactive: [1] 0.006 | [2] 0.069 | [3] -0.077 | [4] -0.115 | [5] 0.14 | [6] 0.02 | [7] 0.123 | [8] -0.012 | [9] 0.002 | [10] -0.034 | [11] -0.028 | [12] -0.08 | [13] -0.044 | [14] -0.039 | [15] -0.054 | [16] 0.054 | [17] 0.054 | [18] 0.066 | [19] 0.019 | [20] 0.038

MRPL49 (UniProt Q13405)
inactive: [1] 0.035 | [2] 0.031 | [3] 0.004 | [4] -0.003 | [5] -0.029 | [6] 0.006 | [7] -0.029 | [8] -0.013 | [9] -0.03 | [10] -0.046 | [11] 0.033 | [12] 0.045 | [13] 0.043 | [14] 0.06 | [15] 0.003 | [16] -0.057 | [17] 0.071 | [18] -0.015 | [19] -0.032 | [20] 0.033

MT-ND2 (UniProt P03891)
inactive: [1] 0.054 | [2] 0.059 | [3] 0.037 | [4] 0.107 | [5] -0.132 | [6] 0.034 | [7] -0.063 | [8] 0 | [9] -0.036 | [10] -0.018 | [11] -0.063 | [12] 0 | [13] 0.056 | [14] -0.205 | [15] -0.065 | [16] -0.051 | [17] 0.044 | [18] 0.062 | [19] 0.048 | [20] -0.048

MRPS35 (UniProt P82673)
inactive: [1] 0.022 | [2] 0.021 | [3] -0.023 | [4] 0.002 | [5] 0.061 | [6] 0.006 | [7] -0.03 | [8] 0.037 | [9] -0.023 | [10] 0.039 | [11] -0.002 | [12] -0.003 | [13] -0.044 | [14] 0.033 | [15] 0.005 | [16] 0.002 | [17] 0.01 | [18] 0.055 | [19] 0.001 | [20] 0.008

Quoted from above (2 entries):
MTHFS (UniProt P49914)
inactive: [1] -0.013 | [2] -0.045 | [3] 0 | [4] 0 | [5] -0.019 | [6] -0.005 | [7] 0.111 | [8] -0.017 | [9] 0.006 | [10] -0.011 | [11] 0.051 | [12] 0.016 | [13] -0.006 | [14] -0.041 | [15] -0.025 | [16] -0.042 | [17] 0.06 | [18] 0.02 | [19] 0.049 | [20] 0.034

MRPL57 (UniProt Q9BQC6)
inactive: [1] 0.006 | [2] 0.069 | [3] -0.077 | [4] -0.115 | [5] 0.14 | [6] 0.02 | [7] 0.123 | [8] -0.012 | [9] 0.002 | [10] -0.034 | [11] -0.028 | [12] -0.08 | [13] -0.044 | [14] -0.039 | [15] -0.054 | [16] 0.054 | [17] 0.054 | [18] 0.066 | [19] 0.019 | [20] 0.038

More entries follow:

MRPL55 isoform 2 (UniProt Q7Z7F7)
inactive: [1] -0.154 | [2] -0.029 | [3] 0.047 | [4] -0.047 | [5] 0.036 | [6] -0.025 | [7] 0.021 | [8] 0.06 | [9] -0.057 | [10] 0.084 | [11] 0.01 | [12] -0.049 | [13] -0.02 | [14] -0.165 | [15] 0.035 | [16] 0.103 | [17] -0.102 | [18] -0.013 | [19] -0.097 | [20] 0.149

MRPL39 isoform 2 (UniProt Q9NYK5)
inactive: [1] 0.047 | [2] -0.013 | [3] -0.01 | [4] -0.015 | [5] -0.012 | [6] 0.073 | [7] -0.088 | [8] 0.004 | [9] -0.006 | [10] -0.011 | [11] 0.006 | [12] -0.036 | [13] -0.021 | [14] 0.138 | [15] 0.006 | [16] 0.03 | [17] 0.066 | [18] 0.035 | [19] 0.006 | [20] -0.059

MTMR6 (UniProt Q9Y217)
inactive: [1] -0.034 | [2] -0.019 | [3] 0 | [4] -0.042 | [5] -0.047 | [6] 0.028 | [7] -0.092 | [8] 0.022 | [9] 0.004 | [10] -0.053 | [11] 0.017 | [12] 0.025 | [13] -0.037 | [14] 0.071 | [15] 0.02 | [16] -0.024 | [17] 0.014 | [18] 0.056 | [19] 0.001 | [20] -0.113

MT-CYB (UniProt P00156)
active: [14] -0.856 | [16] 0.568
inactive: [1] -0.326 | [2] 0.078 | [3] -0.027 | [4] 0.091 | [5] 0.129 | [6] 0.036 | [7] -0.093 | [8] -0.131 | [9] 0.062 | [10] 0.102 | [11] -0.054 | [12] -0.025 | [13] -0.126 | [15] 0.094 | [17] -0.074 | [18] -0.05 | [19] 0.05 | [20] 0.385

MRPS11 (UniProt P82912)
inactive: [1] -0.063 | [2] -0.002 | [3] 0.031 | [4] -0.008 | [5] -0.061 | [6] 0.081 | [7] -0.213 | [8] 0.136 | [9] -0.019 | [10] -0.016 | [11] 0.013 | [12] 0.012 | [13] 0.017 | [14] -0.112 | [15] 0 | [16] 0.168 | [17] 0.103 | [18] -0.052 | [19] -0.028 | [20] 0.069

MRPS12 (UniProt O15235)
inactive: [1] -0.015 | [2] 0.026 | [3] -0.021 | [4] 0.015 | [5] 0.067 | [6] 0.011 | [7] -0.168 | [8] -0.027 | [9] -0.053 | [10] -0.032 | [11] 0.006 | [12] -0.024 | [13] -0.019 | [14] 0.003 | [15] -0.022 | [16] -0.022 | [17] 0.048 | [18] 0.03 | [19] 0.036 | [20] -0.003

Source: the supplement of paper PMC10849652
